# Screening data, single-dose tests

Values are the deposited “Percent Effect”, in %.
The controls that fix the scale are not given in the record; negative values are as filed.
Compounds were drawn at random from those tested, without regard to their results.
Two or more numbers in one place are separate tests of the same structure; such repeats can differ widely.

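Whole-cell growth test on Mycobacterium tuberculosis, read after 4 days in a medium based on cholesterol and the lipid DPPC; the read-out is not stated. Compounds at 50 µM. The record gives no direction; compounds that gave an IC50 in retests scored well above the rest, so higher reads as more growth inhibition. Size under these conditions: about 69,000 compounds, about 370 of them at 50% or above in at least one test.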

structure: CCC[C@H]1CN(Cc2ccccc2C#N)C[C@@H]1NS(C)(=O)=O
effect: -2.8%

structure: CN(C(=O)c1ccc(NC(=O)c2cc[nH]n2)cc1)C1CCCCC1
effect: -1.828%

structure: CCN(C)S(=O)(=O)NCC(O)c1c(Cl)cccc1Cl (stereo not given)
effect: -5.516%

structure: Cn1cc(CN2CCn3cc(CNC(=O)C4CCC4)nc3C2)cn1.O=C(O)C(F)(F)F
effect: 3.777%

structure: CN1CCOC(CN(C(=O)CCc2ccco2)c2nccs2)C1 (stereo not given)
effect: -8.779%

structure: Cc1ncc(CN2CCC(c3nc4cc(Cl)ccc4o3)CC2)s1
effect: 44.97%

structure: CCC(CO)N(Cc1ccco1)C(=O)c1ccc(F)cc1Cl (stereo not given)
effect: -6.723%

structure: COCC1c2nnn(CC3CC3)c2CCN1C(=O)N1CCCC1 (stereo not given)
effect: 2.549% and -0.1972%

structure: CC(C)(C)c1nc(CN(Cc2ccccc2Cl)C2CCCC2)no1
effect: -12.79% and -6.344%

structure: CCN1CCN(C(=O)c2ccc(Cn3ccccc3=O)o2)CC1
effect: 1.37%

structure: CCOc1ncccc1C(=O)N1CCCC1Cn1nc(C)cc1C (stereo not given)
effect: -6.12%

structure: CS(=O)(=O)N1CCOCC2(CCN(c3cnccn3)CC2)C1
effect: -42.31%

structure: CC(C)N(C)Cc1cc(=O)n2c(n1)CN(C(=O)c1ccc[nH]1)CCC2
effect: 1.89%

structure: Cc1cc(CC(C)Nc2nc(C3CCCC3)nc3c2cnn3C)[nH]n1 (stereo not given)
effect: -8.477%

structure: CCC(C)(NCc1ncc(C(C)C)o1)c1nccs1 (stereo not given)
effect: 12.91%

structure: O=C(O)C(F)(F)F.[H][C@]12CCC[C@@]1(COCc1cccnc1)CN(C(=O)c1ccsc1)C2
effect: 22.42%

structure: O=C(N[C@@H]1CN(Cc2ccc(F)c(F)c2)C[C@H]1O)c1cscn1
effect: -6.758%

structure: Cc1ccsc1CNC(=O)CC1CN(C(=O)OC(C)(C)C)C1
effect: -1.028%

structure: CCCC(=O)N1CCCC(c2ccccn2)C1 (stereo not given)
effect: 8.8%

structure: Cl.O=C(Nc1cccc(C(=O)OCC2CCCN2)c1)c1ccoc1 (stereo not given)
effect: 1.731%

structure: CC(C)CC(NC(=O)c1cccc(F)c1F)C(=O)Nc1cc[nH]n1 (stereo not given)
effect: -5.419%

structure: COc1cccc(C(=O)N2CCN(Cc3nc(C(C)C)no3)CC2)c1
effect: -5.342%

structure: COc1ccc2c(ccn2CCC(=O)NCCC(=O)O)c1
effect: -12.82%

structure: Cc1cnn(CC(C)NCc2nc(-c3ccoc3)no2)c1 (stereo not given)
effect: -4.324%

structure: Cc1cc(C(=O)N2C[C@@H](CN3CCOCC3)C[C@H](CO)C2)nc(C)n1
effect: 5.128%

structure: CC(NC(=O)c1cc(-c2cccc(Cl)c2)no1)C(=O)N(C)C (stereo not given)
effect: -15.47%

structure: CCC1CN(C(=O)c2ccc(=O)[nH]c2)CCC(=O)N1Cc1ccccc1 (stereo not given)
effect: -16.04%

structure: Cc1cc(Cl)c(C)c(S(=O)(=O)N2CCN(Cc3ccncc3)CC2)c1Cl
effect: 7.825%

structure: CCCc1cc(C(=O)Nc2nc(SC)ns2)n(C)n1
effect: 28.25% and 13.58%

structure: CCOc1ccc(C(=O)N(C)Cc2nccn2CC(F)(F)F)cc1
effect: -4.439%

structure: CC1CCCCN1Cc1ccc(-c2ccccc2C(=O)O)cc1 (stereo not given)
effect: -0.9122%

structure: CCN1C(=O)C2(CCN(CCN(C)C)CC2)c2ccccc21.O=C(O)C(F)(F)F.O=C(O)C(F)(F)F
effect: -10.16%

structure: CC(C)c1cccc(CSc2nnc(Cn3cncn3)o2)n1
effect: 6.582%

structure: O=S(=O)(NCCC(O)c1ccoc1)c1ccc(Cl)s1 (stereo not given)
effect: 2.362%

structure: CC(C)C(=O)N1CCCN(C(=O)NC2CCc3ccccc3C2)CC1 (stereo not given)
effect: -0.4039%

structure: Cc1nc(-c2cccc(C(=O)O)c2)cc(C2CCN(C(C)C)C2)n1 (stereo not given)
effect: -7.941%

structure: CNC(=O)C1Cn2ccnc2C2(CCN(Cc3csc(C)n3)CC2)O1 (stereo not given)
effect: -20.51%

structure: COCc1cc(CNc2cnn(CC(F)F)c2)ccc1OC
effect: -21.52%

structure: Cc1ccc(C(=O)NC2CCCN(C)C2)c(=O)[nH]1 (stereo not given)
effect: -12.16%

structure: CCOc1ccnc(N2CCN(C(=O)c3ccoc3)CC2)n1
effect: -24.73%

structure: Cc1nc(C(C)C)sc1C(=O)N1CCN(C2CN3CCC2CC3)CC1 (stereo not given)
effect: 7.05%

structure: Cc1nc(-c2cccnc2)ncc1C(=O)N1CCCCC(N)C1 (stereo not given)
effect: -21.7%

structure: [H][C@@]12CN(C(=O)NC(C)C)C[C@]1(C(=O)NC)CCCN2c1ncccn1
effect: -4.991%

structure: CCCC(=O)N(CCN1CCOCC1)c1nc2c(OC)ccc(C)c2s1.Cl
effect: 7.026%

structure: CC(=O)N1CCCC1c1nccnc1Nc1ncccn1 (stereo not given)
effect: -25.8%

Repeated from the top, 4 entries:

For CCC[C@H]1CN(Cc2ccccc2C#N)C[C@@H]1NS(C)(=O)=O the result was -2.8%.
For CN(C(=O)c1ccc(NC(=O)c2cc[nH]n2)cc1)C1CCCCC1 the result was -1.828%.
For CCN(C)S(=O)(=O)NCC(O)c1c(Cl)cccc1Cl (stereo not given) the result was -5.516%.
For Cn1cc(CN2CCn3cc(CNC(=O)C4CCC4)nc3C2)cn1.O=C(O)C(F)(F)F the result was 3.777%.

Measurements from “University of Dundee, Small-Polar-MMV Screening Library” (2021), ChEMBL document CHEMBL3988442.